According to publication PMC7903899:
These are yes or no findings as the source states them, for the method shown. For some assays here: Binding seen in cells or lysates may run through a third protein. Some entries that bind do so weakly or less than the wild type. Tags and fused reporters may be left off the sequences shown.

Chains of the proteins cited; added tags and fusions are not shown.
UniProt Q94AN4: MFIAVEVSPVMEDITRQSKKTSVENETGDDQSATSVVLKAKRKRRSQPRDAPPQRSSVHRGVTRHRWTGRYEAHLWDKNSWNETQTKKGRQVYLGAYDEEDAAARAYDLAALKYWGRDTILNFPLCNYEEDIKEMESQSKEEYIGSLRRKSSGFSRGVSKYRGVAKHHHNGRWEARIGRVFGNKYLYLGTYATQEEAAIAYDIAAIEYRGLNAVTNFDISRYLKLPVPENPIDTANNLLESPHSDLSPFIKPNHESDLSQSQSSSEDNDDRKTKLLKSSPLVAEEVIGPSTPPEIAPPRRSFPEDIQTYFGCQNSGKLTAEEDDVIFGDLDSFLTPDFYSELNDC

Key:
[1] = target: T1, Armadillo BTB Arabidopsis protein 1 (ABAP1), GST fusion (Arabidopsis thaliana) (UniProt B7U179); assay: pull-down; GST pull-down; ABAP1-GST or GST alone as bait, HIS-tagged protein as prey, both produced in E. coli; Western blot with anti-HIS antibody
T1 sequence: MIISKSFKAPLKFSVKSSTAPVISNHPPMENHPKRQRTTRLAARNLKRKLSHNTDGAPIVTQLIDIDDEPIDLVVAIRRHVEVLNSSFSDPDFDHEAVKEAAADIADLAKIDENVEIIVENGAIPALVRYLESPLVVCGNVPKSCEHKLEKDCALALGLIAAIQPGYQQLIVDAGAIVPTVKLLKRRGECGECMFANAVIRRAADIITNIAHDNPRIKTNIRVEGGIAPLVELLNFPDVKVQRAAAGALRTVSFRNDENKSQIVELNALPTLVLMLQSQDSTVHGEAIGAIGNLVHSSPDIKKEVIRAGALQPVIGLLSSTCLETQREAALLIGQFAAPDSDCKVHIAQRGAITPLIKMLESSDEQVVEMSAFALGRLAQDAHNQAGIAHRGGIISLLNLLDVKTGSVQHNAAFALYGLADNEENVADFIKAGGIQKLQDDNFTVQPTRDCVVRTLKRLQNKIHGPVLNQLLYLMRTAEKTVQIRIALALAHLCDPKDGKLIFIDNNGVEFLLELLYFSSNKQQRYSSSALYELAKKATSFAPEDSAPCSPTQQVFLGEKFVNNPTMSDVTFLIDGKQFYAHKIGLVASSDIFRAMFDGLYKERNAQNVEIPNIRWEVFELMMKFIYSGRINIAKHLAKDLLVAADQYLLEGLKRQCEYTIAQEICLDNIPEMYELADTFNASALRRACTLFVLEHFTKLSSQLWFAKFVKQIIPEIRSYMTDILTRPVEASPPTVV

[2] = target: T2, Armadillo BTB Arabidopsis protein 1 (ABAP1), yeast two-hybrid fusion (Arabidopsis thaliana) (UniProt B7U179); assay: two-hybrid; yeast; pairs cloned in both AD and DBD vectors; growth on SD medium lacking leucine, tryptophan, histidine and adenine (selection of strong interactions); empty vectors as negative controls
T2 sequence: T1 sequence

| binding [1] | binding [2] | Substance |
| --- | --- | --- |
| binds | – | ARIA-interacting double AP2-domain protein (ADAP) / WRINKLED3 (WRI3), HIS fusion (from UniProt Q94AN4 1-345) |
| – | binds | ARIA-interacting double AP2-domain protein (ADAP) / WRINKLED3 (WRI3), yeast two-hybrid fusion (from UniProt Q94AN4 1-345) |
